Source: patent publication US8410028 (dated 2013)

Experiments:
[1] = general procedure: Fmoc solid-phase peptide synthesis; Glycine-Wang resin; HATU; conditions: whole synthesis, scale 0.3 mmol
[2] = general procedure: Fmoc solid-phase peptide synthesis; Rink-amide resin; Glycine-Wang resin; HATU; conditions: cyclisation step, on linear precursor

Substance	isolated mass [1] [mg]	isolated yield [1] [%]	cyclisation yield [2] [%]
Azidoacetyl-GPF[Pra]G-OH (SEQ ID NO: 920)	83	50	
cyclic Azidoacetyl-Gly-Pro-Phe-Pra-Gly-OH			20
cyclic Azidoacetyl-Gly-Pro-Phe-Pra-NH2			32

Non-standard residues stand in square brackets, D forms with d. *: point of attachment. Azidoacetyl = [N-]=[N+]=NCC(=O)*; Pra = C#CC[C@H](N)C(=O)O
